Experimental data from article PMC10454820.
No constants are given. Whether binding was seen depends on the method and setting. In cells and extracts the contact can be indirect. Some results given as binding are weak or reduced against the parent protein; the word gives no strength.

Chains of the proteins cited; added tags and fusions are not shown.
UniProt P70658: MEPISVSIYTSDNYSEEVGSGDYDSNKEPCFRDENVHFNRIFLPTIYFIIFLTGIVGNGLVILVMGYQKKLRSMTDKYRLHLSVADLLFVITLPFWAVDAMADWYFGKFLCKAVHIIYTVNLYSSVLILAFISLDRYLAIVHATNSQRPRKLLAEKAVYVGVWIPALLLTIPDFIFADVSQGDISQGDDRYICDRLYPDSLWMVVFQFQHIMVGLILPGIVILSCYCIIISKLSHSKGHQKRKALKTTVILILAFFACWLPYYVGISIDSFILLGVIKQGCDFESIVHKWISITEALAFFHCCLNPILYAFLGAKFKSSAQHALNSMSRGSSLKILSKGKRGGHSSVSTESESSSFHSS
UniProt P60766: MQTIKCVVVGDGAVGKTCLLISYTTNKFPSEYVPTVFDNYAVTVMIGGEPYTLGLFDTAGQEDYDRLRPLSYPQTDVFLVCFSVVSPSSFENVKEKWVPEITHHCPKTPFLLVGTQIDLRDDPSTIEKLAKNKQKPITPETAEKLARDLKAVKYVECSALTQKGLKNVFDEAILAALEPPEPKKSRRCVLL
UniProt Q9QUI0: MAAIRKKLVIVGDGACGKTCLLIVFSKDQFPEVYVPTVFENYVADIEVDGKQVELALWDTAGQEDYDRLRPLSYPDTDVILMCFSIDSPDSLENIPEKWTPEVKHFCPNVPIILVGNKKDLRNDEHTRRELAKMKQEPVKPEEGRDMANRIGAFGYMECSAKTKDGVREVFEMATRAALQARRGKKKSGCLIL

Biological target: C-X-C motif chemokine receptor 4 (mouse (endogenous in MEPM cells)) (UniProt P70658)
Assay: co-IP; anti-CXCR4 coprecipitates from MEPM cell lysate (Pierce IP Lysis Buffer, 800 ug protein, Protein A/G beads, antibody overnight at 4 °C, four washes), immunoblot with anti-RAC1, anti-CDC42, anti-RHOA

Row | binding | Substance
1 | binds | cell division cycle 42 (from UniProt P60766 1-191)
2 | binds | ras homolog family member A (from UniProt Q9QUI0 1-193)
